Over roughly 33,000 sequences, “E-score (-0.5 to 0.5)” has its median near -0.016; the highest 2% begin near 0.3. Some of the results follow.
Each sequence was assayed against T1, Yer184c (UniProt P39961) (assay: PBM E-score (8-mer binding enrichment) (E-score (-0.5 to 0.5)); higher = stronger / more preferred TF binding). Conditions: protein concentration: 100 nM; construct: GST-full length.
T1 sequence: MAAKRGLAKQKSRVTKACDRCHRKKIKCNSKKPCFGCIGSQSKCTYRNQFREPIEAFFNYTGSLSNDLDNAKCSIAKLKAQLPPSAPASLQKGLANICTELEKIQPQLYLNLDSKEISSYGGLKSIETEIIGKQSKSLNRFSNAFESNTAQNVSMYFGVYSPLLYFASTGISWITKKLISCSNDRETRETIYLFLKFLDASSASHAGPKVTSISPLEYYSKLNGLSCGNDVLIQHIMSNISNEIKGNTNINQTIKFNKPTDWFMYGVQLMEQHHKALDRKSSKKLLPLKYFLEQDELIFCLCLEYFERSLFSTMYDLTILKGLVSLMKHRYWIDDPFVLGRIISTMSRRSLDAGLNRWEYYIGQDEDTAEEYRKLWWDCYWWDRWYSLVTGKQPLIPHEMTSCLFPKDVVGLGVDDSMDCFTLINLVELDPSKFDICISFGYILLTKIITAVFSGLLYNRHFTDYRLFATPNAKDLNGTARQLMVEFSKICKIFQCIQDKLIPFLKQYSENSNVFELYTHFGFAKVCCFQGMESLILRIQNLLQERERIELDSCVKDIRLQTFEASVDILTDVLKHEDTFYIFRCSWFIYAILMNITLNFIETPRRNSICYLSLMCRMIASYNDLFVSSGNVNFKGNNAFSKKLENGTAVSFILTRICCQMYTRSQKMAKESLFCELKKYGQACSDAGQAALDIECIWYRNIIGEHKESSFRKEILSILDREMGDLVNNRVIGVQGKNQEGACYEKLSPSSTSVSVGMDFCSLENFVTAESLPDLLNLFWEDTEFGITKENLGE
Procedure, shortened: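 Bound GST-tagged yeast transcription factors, applied at about 100-200 nM to double-stranded universal all-10-mer Agilent arrays, were detected with fluorescent anti-GST. Scans were normalised with masliner. A modified Wilcoxon-Mann-Whitney statistic, the E-score, was assigned to each ungapped eight-base word pooled with its reverse complement by the Universal PBM Analysis Suite.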

Compared with ACGAGAAA, AGCTTTGC is lower in “PBM E-score” value: 0.159 for the first, 0.00702 for the second.

First: AAGTTAAT
Second: ACATATCC
The “PBM E-score” value of the first is higher: 0.085 for the first, 0.0202 for the second.

Compared with GAGCCTCC, TAGATGCA is higher in “PBM E-score” value: -0.206 for the first, -0.0695 for the second.

First: ACTGTTCC
Second: TGCGGAAA
The “PBM E-score” value of the first is lower: -0.0232 for the first, 0.184 for the second.

First: AGTCGCGG
Second: CACTAGAG
The “PBM E-score” value of the first is lower: -0.111 for the first, -0.011 for the second.

Going from ACGTTACA to AACAGCGG, the “PBM E-score” value falls from -0.0262 to -0.102.

Compared with TCTCGAAA, CGGGCTAG is lower in “PBM E-score” value: 0.00993 for the first, -0.0914 for the second.

First: GGTGGAAC
Second: ACCGATCA
The “PBM E-score” value of the first is lower: -0.0965 for the first, 0.245 for the second.

Compared with ACTTTGCA, TACTCAAA is lower in “PBM E-score” value: 0.167 for the first, 0.0981 for the second.

Compared with CCGTGTTC, CCAGCCTA is lower in “PBM E-score” value: 0.228 for the first, -0.206 for the second.

First: ATTGGTAC
Second: AACGAATC
The “PBM E-score” value of the first is lower: 0.0114 for the first, 0.15 for the second.

First: TACATGCA
Second: CCCTTCCA
The “PBM E-score” value of the first is lower: -0.0786 for the first, -0.0759 for the second.

Going from ACGATATC to GATTGAAC, the “PBM E-score” value rises from 0.0286 to 0.067.

Going from ACCCAACT to AACCCCGC, the “PBM E-score” value falls from -0.126 to -0.133.

First: CAAAAACA
Second: AATGCTCG
The “PBM E-score” value of the first is higher: 0.101 for the first, -0.0329 for the second.

First: AATTGTTA
Second: CAATAAAC
The “PBM E-score” value of the first is lower: 0.201 for the first, 0.204 for the second.

Compared with CCCCGCAA, CCACCTTC is lower in “PBM E-score” value: 0.0469 for the first, -0.234 for the second.

Going from CAGTGAGG to GGTTCGAA, the “PBM E-score” value rises from -0.341 to 0.204.

First: CCTCTCAA
Second: AGTCCCAT
The “PBM E-score” value of the first is higher: -0.0234 for the first, -0.173 for the second.

First: TCTGTCCA
Second: CGGATTTC
The “PBM E-score” value of the first is lower: 0.0909 for the first, 0.276 for the second.

First: AGAGTTTC
Second: GAACCCTA
The “PBM E-score” value of the first is lower: -0.0656 for the first, 0.0642 for the second.

Compared with CAGGAGTA, TCAGGGGA is lower in “PBM E-score” value: 0.0208 for the first, -0.252 for the second.

Going from AAATCTCG to GTCCGCAC, the “PBM E-score” value falls from 0.141 to 0.0405.

First: ACGGACGT
Second: CAATTGCA
The “PBM E-score” value of the first is lower: -0.0269 for the first, 0.0126 for the second.

First: GATGAGCA
Second: CACAAAGC
The “PBM E-score” value of the first is lower: 0.0238 for the first, 0.0873 for the second.

Going from AATAGAAA to ACAAGCAG, the “PBM E-score” value falls from 0.0955 to -0.0511.

Compared with CACTTGCG, ATGTGCGC is lower in “PBM E-score” value: -0.0504 for the first, -0.084 for the second.

Compared with CAGTGGAG, CGGCTTCA is higher in “PBM E-score” value: -0.0375 for the first, 0.345 for the second.

First: AGGCGTAG
Second: CCCGACCA
The “PBM E-score” value of the first is lower: -0.116 for the first, -0.0598 for the second.

Going from CGCTCGGC to CCAAGTCG, the “PBM E-score” value falls from 0.276 to 0.00149.

First: GCAGATAA
Second: AATTATGA
The “PBM E-score” value of the first is higher: 0.223 for the first, 0.211 for the second.

Going from CGAACTGA to CGGAGACG, the “PBM E-score” value rises from 0.0692 to 0.259.

Going from CGCCACTA to GAACTCCA, the “PBM E-score” value rises from -0.227 to 0.0527.

Compared with TCCACAGA, CGCCTAAG is higher in “PBM E-score” value: -0.0958 for the first, -0.0821 for the second.

Compared with ATCGTGCG, GCCGCTGA is lower in “PBM E-score” value: 0.226 for the first, 0.124 for the second.

Going from AATGCTGA to GACCCTCA, the “PBM E-score” value falls from -0.0887 to -0.177.

Compared with GTATAAGA, CGAAGTCC is higher in “PBM E-score” value: -0.1 for the first, -0.063 for the second.

Going from ATATACGC to TGCCCGCA, the “PBM E-score” value rises from -0.147 to 0.041.

First: AGCTTACG
Second: CCCACCTC
The “PBM E-score” value of the first is higher: -0.138 for the first, -0.329 for the second.

First: GAGACAGC
Second: AGTGCTGG
The “PBM E-score” value of the first is higher: -0.0205 for the first, -0.157 for the second.

Compared with GCCAGACA, GGTGTCAC is lower in “PBM E-score” value: 0.015 for the first, -0.0719 for the second.

First: ATACCGGG
Second: CTACTGAC
The “PBM E-score” value of the first is higher: 0.152 for the first, -0.0616 for the second.

Going from AGGCGAGG to ACAAACTG, the “PBM E-score” value rises from -0.204 to -0.107.

Going from ATGTTATC to CGGGAAGA, the “PBM E-score” value rises from 0.155 to 0.315.

First: ATTCTCTG
Second: GAGCTATA
The “PBM E-score” value of the first is higher: -0.057 for the first, -0.245 for the second.

Compared with AGTTATCA, CGCCTCCG is lower in “PBM E-score” value: 0.0573 for the first, 0.0159 for the second.

Compared with AGAACTAT, ACCCGAGC is higher in “PBM E-score” value: 0.165 for the first, 0.229 for the second.

Going from TGTATCAA to AGTTGTAT, the “PBM E-score” value rises from 0.151 to 0.159.

Compared with ATTACGGG, GAGCGTTA is lower in “PBM E-score” value: 0.0347 for the first, 0.00862 for the second.

Going from CTACGGAC to GATACGGA, the “PBM E-score” value rises from -0.014 to 0.303.

Compared with ATTGGCAC, TAAGATCA is higher in “PBM E-score” value: -0.0978 for the first, 0.00607 for the second.

First: GAATATGC
Second: GCAAGCCA
The “PBM E-score” value of the first is higher: 0.0187 for the first, -0.124 for the second.

Going from AGACACCA to ACCCCGCA, the “PBM E-score” value falls from -0.0439 to -0.0654.

Going from CCTGTTGA to AGAGTACA, the “PBM E-score” value falls from 0.069 to 0.03.

Going from AGGCAAAT to AAAAACAG, the “PBM E-score” value rises from 0.0186 to 0.115.

Compared with AACGGAAC, TCGACCCA is lower in “PBM E-score” value: 0.333 for the first, -0.126 for the second.

Going from ATGCATGC to AGCAATAA, the “PBM E-score” value rises from -0.0272 to 0.00255.

Going from GACTTGCA to AGATCGCT, the “PBM E-score” value falls from 0.0922 to -0.0328.

Going from ATTCAAAT to CTCGCTAA, the “PBM E-score” value falls from 0.171 to -0.0577.

Going from GAACGCGC to GCGACGAC, the “PBM E-score” value falls from 0.163 to -0.249.

First: AGAGTGGA
Second: CCATAGAG
The “PBM E-score” value of the first is lower: -0.184 for the first, -0.11 for the second.

Compared with GCCGTTCA, GAGACCTA is lower in “PBM E-score” value: 0.0622 for the first, -0.186 for the second.

Going from ACCACAAT to AATTCATG, the “PBM E-score” value rises from -0.17 to 0.216.

First: GCGGATCC
Second: CCACAAGG
The “PBM E-score” value of the first is higher: 0.161 for the first, -0.183 for the second.

First: CCACTAGC
Second: CAATGCCC
The “PBM E-score” value of the first is lower: -0.285 for the first, -0.177 for the second.

Going from CACCGATC to AGGTGAAA, the “PBM E-score” value rises from 0.0488 to 0.0594.

Going from ACTCACAA to CAGCAATG, the “PBM E-score” value falls from 0.0218 to -0.296.

First: AGACGGTG
Second: CAAGACAG
The “PBM E-score” value of the first is lower: -0.238 for the first, -0.0215 for the second.

Compared with ACGAGTTC, CTACCTTC is higher in “PBM E-score” value: -0.0111 for the first, 0.0363 for the second.

Going from ACACAGAT to CCCAGCGA, the “PBM E-score” value falls from -2e-05 to -0.236.

Going from GGCCAACA to GCCGCCGC, the “PBM E-score” value rises from -0.0401 to 0.0787.

First: ATGCCGAC
Second: ACCTCTCA
The “PBM E-score” value of the first is higher: 0.243 for the first, -0.217 for the second.

Compared with ATGGGGAC, CTACTAAC is higher in “PBM E-score” value: -0.22 for the first, 0.0895 for the second.

First: AACGCCAC
Second: CATGATTA
The “PBM E-score” value of the first is lower: -0.023 for the first, 0.218 for the second.

Compared with CAAAGACG, ACTACCCG is higher in “PBM E-score” value: -0.0328 for the first, 0.0408 for the second.

First: AAAGCAGC
Second: CTCATCGA
The “PBM E-score” value of the first is higher: 0.101 for the first, -0.0305 for the second.

First: ATGAACAG
Second: CAGGCGTC
The “PBM E-score” value of the first is higher: 0.17 for the first, -0.185 for the second.

First: ACTGACAG
Second: AGGCTGAC
The “PBM E-score” value of the first is higher: 0.039 for the first, -0.164 for the second.

Going from CCATAATC to ATGCCGTG, the “PBM E-score” value rises from -0.0871 to 0.115.

Compared with AAGCTAGC, ACGAGAGT is lower in “PBM E-score” value: -0.0261 for the first, -0.115 for the second.

Compared with CAATCGAC, AGCTTAGC is higher in “PBM E-score” value: -0.149 for the first, -0.0666 for the second.

Compared with AAAGCTGA, GTTATTTA is higher in “PBM E-score” value: 0.0558 for the first, 0.16 for the second.

First: AGGTTTCC
Second: AGAGGAAC
The “PBM E-score” value of the first is lower: -0.0643 for the first, 0.0137 for the second.

Going from CTCCTCCA to ATGAATAG, the “PBM E-score” value rises from -0.0993 to -0.0174.

First: AGCGTTAG
Second: CCCTTAGG
The “PBM E-score” value of the first is lower: -0.214 for the first, -0.19 for the second.

Going from GTGAAAAA to AGATCTAA, the “PBM E-score” value falls from 0.232 to 0.0189.
